Experimental data taken from PubChem BioAssay AID1347426 (Functional Genomics Laboratory (NCATS/FGL), 2020).
In all, about 31,000 sequences went through this assay and about 1,400 (4.5%) were called active.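 Rule for the calls: active = median seed-adjusted z-score above 1 or below -1; inactive = the rest.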 Some of the results follow.

Experiment: Novel Modifiers of Survival Motor Neuron (SMN) Protein: Gene Identification via Genome-wide siRNA Screen;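 note: luminescence tracks full-length SMN protein made from the SMN2 reporter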
Conditions: HEK293T SMN2-luciferase reporter, siRNA knockdown, 72 h; actives lie on both sides
Outline: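 siRNA screen, 10418 genes ×3 siRNAs; 1 pmol/well, lipid reverse transfection into HEK293T SMN2-luc reporter line. 72 h, 37 °C, 5% CO2; ONE-Glo readout. Data: neg-ctrl normalized, log10, MAD; hit = MAD >1.0 or < -1.0.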
In the case of CGCACAGAGUACAGACUUATT against SFRS4, the median seed-adjusted z-score is reported as inactive: 0.239.
In the case of GCUAAUGAAUUGAAACGGATT against MYO1D, the median seed-adjusted z-score is reported as inactive: -0.201.
With GUUGAUCAGCUGUCCCUUUTT against ILVBL the median seed-adjusted z-score was inactive: 0.343.
For CUAUUGGUAUAGUCGAUAATT against GIN1, the median seed-adjusted z-score was inactive: -0.0585.
In the case of CCAUGAGUGUUAUGACGAUTT against BFSP1, the median seed-adjusted z-score is reported as inactive: 0.057.
For AUAAGGAACUUGAUCCUAUTT against ATP5J, the median seed-adjusted z-score was inactive: 0.242.
With CUGUCAGAGUGGAGACGUATT against CLK1 the median seed-adjusted z-score was inactive: -0.436.
With CAAACGAUCAGUAAGAAUATT against FLI1 the median seed-adjusted z-score was inactive: 0.255.
With GAAUCGAGAUCAACAGAUATT against ZNF280B the median seed-adjusted z-score was inactive: 0.113.
With CCUGAGCUCUGAGAAACAATT against TRIM43 the median seed-adjusted z-score was inactive: -0.4.
In the case of GCAUUACGAUAGCUCAUUATT against FOXL1, the median seed-adjusted z-score is reported as inactive: -0.448.
In the case of GCAUGUUACUUCGCUUUUUTT against EIF4G2, the median seed-adjusted z-score is reported as inactive: -0.386.
In the case of GCACCUCAACUGUUCACAATT against OSBP2, the median seed-adjusted z-score is reported as inactive: -0.568.
For ACAGGAAACUGGUGAUAAATT against SLC16A8, the median seed-adjusted z-score was inactive: 0.192.
With GGAAGAAUCAUUUUCCUCATT against KLK10 the median seed-adjusted z-score was inactive: -0.902.
In the case of AGCACACCGUGGUAGUAUATT against DCAKD, the median seed-adjusted z-score is reported as inactive: 0.0872.
In the case of GCAAGACCAAGAUACCGAUTT against ATAD2, the median seed-adjusted z-score is reported as inactive: -0.246.
In the case of GGACAUGACAGCAACCUUUTT against EGR1, the median seed-adjusted z-score is reported as inactive: 0.0836.
With AGAUGUCCCUGUUGUUUGATT against RASGRP2 the median seed-adjusted z-score was inactive: -0.00329.
In the case of AGAUGUUCCCGCAAAUCAATT against SLC6A20, the median seed-adjusted z-score is reported as inactive: -0.306.
With GCGACUUGGUAGGAGAAAATT against M6PR the median seed-adjusted z-score was inactive: -0.879.
In the case of ACAUGCAGAUAUUCAAUGATT against HMOX2, the median seed-adjusted z-score is reported as inactive: 0.
In the case of CAAGCUGUCUAAGUCCAAATT against NOVA1, the median seed-adjusted z-score is reported as inactive: -0.486.
For GCAACUUAGAGUUUGGUGATT against PODN, the median seed-adjusted z-score was inactive: 0.589.
In the case of CGUGAGUGCUGUAAAUGCATT against ALG8, the median seed-adjusted z-score is reported as inactive: -0.0604.
With AGGUAUCGGUCAUGAUGAATT against TNK1 the median seed-adjusted z-score was inactive: -0.727.
With CGCUGAGCAGGUCAUCUUUTT against PVRL2 the median seed-adjusted z-score was inactive: -0.367.
For AGAUUUAUGCUAUCCGUCATT against RPS16, the median seed-adjusted z-score was inactive: 0.
For AGAUGAGCCUAUACAGCGATT against TRIM9, the median seed-adjusted z-score was inactive: -0.437.
With CCAUUAGGAUUAACAGUAATT against PHYH the median seed-adjusted z-score was inactive: 0.208.
With GGUUUACGUUGUAACCGAATT against PLSCR4 the median seed-adjusted z-score was inactive: -0.543.
With GCUCAUUAGGUGCUUCAUUTT against AQP8 the median seed-adjusted z-score was inactive: -0.763.
With CACCUUAUCCUGACGUAAATT against MET the median seed-adjusted z-score was inactive: 0.55.
With GCCUUCGCAUCUCAGAAUATT against SLC26A11 the median seed-adjusted z-score was inactive: -0.507.
For GGAAUGCGAUUCAAUGUGATT against DECR1, the median seed-adjusted z-score was inactive: 0.0567.
With AGAUCACUCUCAUCAAUGATT against CDH23 the median seed-adjusted z-score was inactive: -0.918.
In the case of CCACCGCAAUCCUACCAGUTT against AURKAIP1, the median seed-adjusted z-score is reported as inactive: 0.067.
In the case of UCAGCACCGUGGAUAGGGATT against ANGPTL6, the median seed-adjusted z-score is reported as inactive: 0.
For CUCUGGGAGUCACGACUUUTT against GPR37L1, the median seed-adjusted z-score was inactive: -0.0348.
In the case of AGAAUGUGAUGGAGAGGAATT against RCC1, the median seed-adjusted z-score is reported as inactive: -0.165.
For GGAAGGCAACUGUCAUUUUTT against ZNF461, the median seed-adjusted z-score was inactive: 0.0877.
With CGCGUUAAAUCAGGAAGCATT against HOXA1 the median seed-adjusted z-score was inactive: 0.
For CAAGGUCACCAGUUGAAAATT against SCML1, the median seed-adjusted z-score was inactive: 0.575.
With CCACUUCACGAUCAAAGAUTT against GAA the median seed-adjusted z-score was inactive: 0.756.
With GACUUUGCGCAGUACCAGATT against SP5 the median seed-adjusted z-score was inactive: 0.105.
In the case of GCCUUCUCCAAGUAAAUUUTT against ZNF296, the median seed-adjusted z-score is reported as inactive: -0.00618.
With GCAGAAUGCAUAUAGAGCATT against ALKBH1 the median seed-adjusted z-score was inactive: -0.087.
In the case of CUUUAACUGGGAUCACUGUTT against FOLR3, the median seed-adjusted z-score is reported as inactive: 0.
In the case of GAAUCGGAGAGUGUAGAUATT against HNRNPD, the median seed-adjusted z-score is reported as inactive: 0.504.
For GAAGGAAGUGAGUCUAUAATT against PPME1, the median seed-adjusted z-score was inactive: 0.342.
For AAACAACAGGGAUUAAUGATT against ERN2, the median seed-adjusted z-score was inactive: 0.526.
For GCUACUACCAAGGAUCUCATT against ARL15, the median seed-adjusted z-score was inactive: -0.944.
In the case of GGGUUCAACUGGAGGCAAATT against RBM15, the median seed-adjusted z-score is reported as inactive: -0.409.
For GCCUUAUAGAUGUAUUGAATT against ZNF485, the median seed-adjusted z-score was inactive: 0.445.
For GGUCUUCGAGUUGUACCAATT against TG, the median seed-adjusted z-score was inactive: 0.0137.
In the case of GGAAGACUAUUGGAUAGAATT against ARHGAP18, the median seed-adjusted z-score is reported as inactive: 0.
With GGAUGGUAAUCACAAUUGATT against XPNPEP3 the median seed-adjusted z-score was inactive: -0.282.
In the case of AAACUAACAUUCGAUUGAATT against TRIM48, the median seed-adjusted z-score is reported as inactive: 0.
With GGUCGGAUAUGUAGAUUAUTT against TDRD1 the median seed-adjusted z-score was inactive: -0.164.
In the case of AGAAGUUUAUGAUUGUUCATT against CD5L, the median seed-adjusted z-score is reported as inactive: 0.
With GGCUGUGCUGUAUCCUCAATT against SERPINI1 the median seed-adjusted z-score was inactive: 0.127.
With CCAAGAUCCUUAGCAGCAATT against NEK8 the median seed-adjusted z-score was inactive: -0.099.
For CCAUUCUUCAAAGAUUAAATT against RASSF6, the median seed-adjusted z-score was inactive: -0.592.
With GACCUGCCGUGAUAUCGUUTT against PSMA3 the median seed-adjusted z-score was inactive: -0.81.
For CAUAGAAGCUGGAUGUUCATT against ROD1, the median seed-adjusted z-score was inactive: 0.42.
For GCAGCUGUCUAUGAUGUAATT against AGPAT3, the median seed-adjusted z-score was inactive: 0.
For CGAUUUGCGCAUUUCCUGGTT against FOXD4L6, the median seed-adjusted z-score was inactive: -0.137.
For GGUUAUACUGGAGAGCUUUTT against DNER, the median seed-adjusted z-score was inactive: -0.316.
In the case of GGGAACUUCUCGGACAUCATT against CXCR7, the median seed-adjusted z-score is reported as inactive: -0.511.
For GCAUCAUCCGGGAACCUUUTT against SELP, the median seed-adjusted z-score was inactive: -0.879.
In the case of GGCUAAGACUGAUCCGUCATT against ATP5O, the median seed-adjusted z-score is reported as inactive: -0.324.
With CACCCAGAAUGAGAACGGATT against FAM63B the median seed-adjusted z-score was inactive: 0.111.
For GAUAGAAGAUUGUAAAGCUTT against MACF1, the median seed-adjusted z-score was inactive: -0.146.
For CAACCAGACUAUUCGGACATT against PPP1R10, the median seed-adjusted z-score was active: 1.41.
For GGUUUAAUCUUACCUAUAATT against OVCH2, the median seed-adjusted z-score was inactive: 0.439.
In the case of GUAUCCUCUCGAUCACAUATT against UQCRH, the median seed-adjusted z-score is reported as inactive: 0.458.
With AAUUGUUACAGGUUGCAAATT against P4HA2 the median seed-adjusted z-score was inactive: 0.
For ACAAGACUUAUGCAAGAUATT against XRCC6BP1, the median seed-adjusted z-score was inactive: 0.128.
With GCGAGUGGAUGAUCCAGCATT against HLA-DMA the median seed-adjusted z-score was inactive: -0.00543.
For GCUGGAAAGUGGAACGGAATT against DUSP16, the median seed-adjusted z-score was inactive: 0.
With AGCGAAACAUUGUCUGGUATT against GAL3ST4 the median seed-adjusted z-score was inactive: 0.248.
With GGUACAUUCUGGAAGCACUTT against TRPT1 the median seed-adjusted z-score was inactive: -0.671.
For CCUAAGCCUUAUUAAACAATT against ZNF100, the median seed-adjusted z-score was inactive: -0.209.
For GAAAGGAUCUUGGAAUUCATT against SLC10A6, the median seed-adjusted z-score was inactive: -0.803.
With GCAGAGUGCUUAUUCACUUTT against RGS3 the median seed-adjusted z-score was inactive: 0.065.
For CCAGAUAUCGACCAUAUAATT against KLF17, the median seed-adjusted z-score was inactive: -0.131.
For GCGACUACCUGUUUCAACATT against PELO, the median seed-adjusted z-score was inactive: 0.394.
In the case of GGACUUAAGCGACAACGCATT against RANGAP1, the median seed-adjusted z-score is reported as inactive: -0.0379.
With CAAAAGCAUCUACGACGUUTT against FOXH1 the median seed-adjusted z-score was inactive: 0.
For GGAAUGUGUGUGAUGCCUUTT against RAB40A, the median seed-adjusted z-score was inactive: 0.
For CAGUCUAACUGGAAUUACUTT against THEX1, the median seed-adjusted z-score was inactive: -0.423.
For GUGCUAAACCAAUUCCGAATT against ALOX12, the median seed-adjusted z-score was inactive: -0.247.
For GCUUUUGCAUGGAUGUGCATT against ELTD1, the median seed-adjusted z-score was inactive: 0.387.
With CAAGCAUCUCUGUGAAGAATT against CARD18 the median seed-adjusted z-score was inactive: 0.568.
For GUAUAUUACCUCAUGAACATT against PFKFB4, the median seed-adjusted z-score was inactive: 0.149.
For GGCUGAACCUGUAUGAGUUTT against PSMB3, the median seed-adjusted z-score was inactive: -0.725.
With GGGUCAUGGUCACCGACUUTT against PCSK9 the median seed-adjusted z-score was inactive: 0.146.
With CCUCGACCACGAGCAGAAATT against PPP2R3B the median seed-adjusted z-score was inactive: 0.
For GAGAGUAAAUAUGCGAAUATT against ATP8B1, the median seed-adjusted z-score was inactive: 0.357.
In the case of AGCUGACCGAGUUCCUGCATT against GAL3ST1, the median seed-adjusted z-score is reported as inactive: 0.263.
With GCUUUGACCGUGUCCGAAATT against STT3A the median seed-adjusted z-score was inactive: 0.
For GAAGCACUAGUGAAGGUUATT against UGT8, the median seed-adjusted z-score was inactive: 0.
With GAGUCAGACGGAAUCGAAATT against CTSG the median seed-adjusted z-score was inactive: -0.47.
In the case of GAAGGAGACUUGGAACGCATT against TPM3, the median seed-adjusted z-score is reported as inactive: 0.111.
For UGAAGUGGAUUUAACUAAATT against RAD52, the median seed-adjusted z-score was inactive: -0.737.
With CGGAUAUUCCUGAACGCAATT against MARK3 the median seed-adjusted z-score was inactive: 0.271.
With GCUUGAAGUUAGUGAAUUATT against SLC37A3 the median seed-adjusted z-score was inactive: 0.246.
With GAAACUCCCAUGUCUUAUATT against ZKSCAN3 the median seed-adjusted z-score was inactive: 0.
